The source of these data is PubChem BioAssay AID493014 (National Center for Advancing Translational Sciences (NCATS), 2011).

The list shows a part of the results. Shown are side measurements of this screen, not its main read-out; they come without a call. Compounds called inactive in the main read-out are mostly missing here. Words in brackets tell the shape of the fitted curve; partial curves, single points and poor fits give uncertain potencies.

This test in a line: qHTS Assay to Find Inhibitors of Chronic Active B-Cell Receptor Signaling. As to conditions: ABC-DLBCL IkBa-CBG/CBR reporter, luminescence ratio (green luciferase fused to IkBa over red control in TMD8 lymphoma cells), 4 h. Summed up: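 Concentration-response series (up to 46 uM) were applied to TMD8 dual-reporter cells for 4 h at 37C with doxycycline. Green/red ratio, after filter-overlap correction, defined %Activity; red signal alone was normalised to basal cells and zero luminescence.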
Background: In qHTS, concentration-response curves come from the screen itself.

[1] abbreviates: measured here: CBR red luminescence, cell number.
The mark [2] stands for this setting: measured here: IkBa-CBG green luminescence.

In the case of `COc1ccc(NC(=O)CSc2c3c(nc4ccccc24)CCCC3)c(OC)c1`, the AC50 under setting [1] was 29.1 µM [falling, single point].

Take `CC1CC(C)CN(C(=O)CCC(=O)Nc2nnc(C3CCCCC3)s2)C1` (stereo not given): under setting [1], the half-maximal activity concentration (AC50) was 3.55 µM [rising, partial curve, poor fit].

For `COc1ccc(C(=O)NCCN2C(=O)S/C(=C\c3cccnc3)C2=O)c(OC)c1OC`, the AC50 under setting [2] was 18.4 µM [falling, partial curve, poor fit].

As for `CC(C)(C)c1ccc(SCCc2cccnc2)cc1`, the AC50 under setting [1] is 0.708 µM [rising, full curve, poor fit].

`Cn1c(-c2ccc(F)cc2)cnc1NCc1cccc(F)c1`: under setting [1], the AC50 is 35.5 µM [falling, single point].

On to `Cc1ccc(C)c(NC(=O)c2ccccc2NC(=O)C2CCCO2)c1` (stereo not given), for which, under setting [1], the AC50 was 11.2 µM [rising, partial curve].

Consider `CCC1=C2CC[C@H]3C(=O)N(CC)C(=O)[C@H]3[C@H]2[C@@]2(Cc3ccccc3)C(=NCc3ccccc3)OC(=O)N2C1=O`, for which the AC50 under setting [1] is 0.1 µM [falling, full curve, poor fit].

On to `CCOC(=O)[C@@H]1[C@H]2COc3cc(OC)ccc3[C@@H]2N2C(=O)N(c3ccc(Cl)cc3)C(=O)[C@@]12C`, for which the AC50 under setting [1] is 0.355 µM [rising, full curve, poor fit].

Regarding `CCC1=NN(C(=O)C(=O)Nc2ccccc2OC)C(O)(C(F)(F)F)C1` (stereo not given), the AC50 under setting [1] was 7.08 µM [falling, partial curve].

Turning to `CCCNC(=O)CC1C(=O)N(Cc2ccccc2)C(C)c2nc3ccccc3n21` (stereo not given), the AC50 is, setting by setting: under setting [1], 2.59 µM [rising, single point]; under setting [2], 2.91 µM [falling, single point].

`Cc1ccc2nc3c(cc(C(=O)NCCCn4ccnc4)n3C)c(=O)n2c1`: the AC50 under setting [1] was 8.91 µM [rising, partial curve, poor fit].

For the molecule `O=C(CN1C(=O)S/C(=C\c2ccc(F)cc2)C1=O)NCCCn1ccnc1`, the AC50 under setting [1] was 10 µM [falling, partial curve, poor fit].

Take `Cc1ccc(CN2CC(C(=O)Nc3ccncc3)CC2=O)cc1` (stereo not given): the AC50 under setting [1] is 5.01 µM [rising, full curve, poor fit].

Regarding `Cc1[nH]c2ccccc2c1/C=N/Nc1nncn1N`, the AC50 under setting [1] was 8.91 µM [falling, partial curve].

For `COc1ccc(CN(C)Cc2nc3scc(-c4ccccc4)c3c(=O)[nH]2)cc1OC`, the AC50 under setting [2] was 23.1 µM [falling, single point].

`Cc1cc(C)cc(-n2cc(C(=O)O)c(=O)cc2C)c1`: the half-maximal activity concentration (AC50) under setting [1] is 35.5 µM [rising, single point].

For the molecule `CCCOc1cccc(-c2cc(C(=O)NNC(=S)NCC)c3ccccc3n2)c1`, the AC50 under setting [1] is 25.9 µM [falling, single point].

As for `CSc1nnc(-c2sc3cc(C(F)(F)F)cnc3c2-c2ccccc2)n1C`, the AC50 under setting [1] was 29.1 µM [rising, single point].

On to `Cc1ccc(S(=O)(=O)Nc2ncnc3sc(C)c(C)c23)cc1`, for which the AC50 under setting [1] was 9.2 µM [falling, partial curve, poor fit].

Consider `NC(=O)C1=NOC(CNc2ncc(C(F)(F)F)cc2Cl)C1` (stereo not given), for which, under setting [1], the AC50 was 25.9 µM [rising, single point].

Regarding `COc1ccccc1NC(=O)Cn1cnc2c(nnn2-c2ccc(C)cc2)c1=O`, the AC50 under setting [1] was 1.12 µM [rising, full curve, poor fit].

With `c1cncc(-c2noc(CC3CCCCC3)n2)c1`, the half-maximal activity concentration (AC50) runs as follows: under setting [1], 6.51 µM [falling, single point]; under setting [2], 4.11 µM [rising, partial curve, poor fit].

In the case of `Cn1c(SCC(=O)N2c3ccccc3CCc3ccccc32)nnc1-c1ccc(O)cc1`, the AC50 under setting [1] is 29.1 µM [falling, single point].

For `CCCS(=O)(=O)Nc1c(C(=O)O)[nH]c2ccc(OC)cc12`, the AC50 under setting [1] is 11.2 µM [falling, partial curve, poor fit].

As for `COc1ccc(/C=N/Nc2nccnc2Cl)c(OC)c1`, the AC50 was 10 µM [falling, partial curve] under setting [1] and 12.6 µM [falling, partial curve, poor fit] under setting [2].

For `O=C(Cn1cnc2cc([N+](=O)[O-])ccc2c1=O)Nc1ccc2c(c1)OCO2`, the AC50 under setting [1] is 20 µM [falling, single point].

For the molecule `COc1ccc2cc(C(=O)NCc3ccco3)c(=Nc3ccc(C(=O)O)cc3)oc2c1`, under setting [1], the AC50 is 0.366 µM [falling, full curve, poor fit].

`Cc1[nH]c2ccccc2c1N=Nc1ccccc1C(=O)O`: the AC50 under setting [1] was 2.31 µM [falling, full curve].

In the case of `CCOC(=O)c1c(Nc2ccccc2)sc(/C=C2\C=Nc3ccccc32)c1O`, the AC50 under setting [1] was 1.3 µM [rising, full curve, poor fit].

For `Brc1ccc(OCCCN2CCOCC2)cc1`, the concentration at half-maximal activity (AC50) under setting [1] is 1.16 µM [rising, full curve, poor fit].

Take `Fc1cccc(Cl)c1Cn1nnc2c(NCc3ccccn3)ncnc21`: the AC50 under setting [1] is 11.6 µM [falling, partial curve, poor fit].

Turning to `CCCc1cc(=O)[nH]c(SCC(=O)Nc2nc(-c3ccccc3)cs2)n1`, under setting [1], the AC50 was 12.6 µM [falling, partial curve, poor fit].

As to `CCOc1ccccc1N(CC(=O)NC1CCCCC1)C(=O)CCC(=O)Nc1cc(C)ccn1`, the AC50 under setting [1] was 17.8 µM [falling, single point].

For the molecule `Cc1ccc(/C=C/C2=NN(Cc3ccccc3Cl)C(=O)CC2)cc1`, the AC50 under setting [1] is 11.6 µM [rising, partial curve, poor fit].

Take `CC1C/C(=N/NC(=O)c2ccc(CSc3nc4ccccc4[nH]3)cc2)CC(C)(C)C1` (stereo not given): the AC50 under setting [1] is 29.1 µM [falling, single point].

For the molecule `O=S(=O)(NCCc1cn2ccccc2n1)c1ccc(-c2ccccc2)cc1`, the AC50 under setting [1] is 17.8 µM [falling, single point].

As for `CCC(C)NC(=O)c1cc2c(=O)[nH]c3ccc(C)cc3c2s1` (stereo not given), the concentration at half-maximal activity (AC50) under setting [1] is 4.47 µM [rising, full curve, poor fit].

Regarding `CCCNC(=O)COC(=O)c1cc(-c2ccc(OC)cc2)nc2ccccc12`, the AC50 under setting [1] is 4.47 µM [rising, full curve, poor fit].

Regarding `CN(C)c1ccc(C#Cc2ccc3cc(CCCO)oc(=O)c3c2)cc1`, under setting [1], the AC50 is 0.82 µM [rising, full curve].

Consider `CC(C)c1ccc(/C=C(\c2nc3ccccc3[nH]2)S(=O)(=O)c2ccccc2)cc1`, for which the AC50 is, setting by setting: under setting [1], 29.1 µM [falling, single point]; under setting [2], 4.11 µM [falling, partial curve, poor fit].

With `Cc1cccc(NC(=S)Nc2cccc(C(F)(F)F)c2)n1`, the AC50 under setting [1] is 7.31 µM [rising, partial curve].

Turning to `Cc1ccc(S(=O)(=O)NCC(=O)OCCOc2ccccc2F)cc1`, the AC50 under setting [1] is 25.9 µM [falling, partial curve, poor fit].

In the case of `O=C(CCNC(=O)Cn1ccc2ccccc2c1=O)NCCN1CCN(c2cccc(Cl)c2)CC1`, the AC50 under setting [1] was 0.92 µM [falling, partial curve, poor fit].

For the molecule `Cc1nnc(SCC(=O)Nc2cc(-c3cc(C)c(C)cc3C)nn2-c2ccccc2)s1`, under setting [1], the half-maximal activity concentration (AC50) was 2.59 µM [rising, partial curve, poor fit].

Consider `O=C(Nc1cc(Oc2ccc(Cl)cc2)cc([N+](=O)[O-])c1)c1ccco1`, for which the AC50 under setting [1] was 2.59 µM [rising, full curve, poor fit].

In the case of `CCOC(=O)C1CCN(C(=O)c2cc3c(=O)n4ccccc4nc3s2)CC1`, the AC50 under setting [1] is 8.91 µM [falling, partial curve, poor fit].

As to `COc1ccc(C(=O)N/N=C/C(Br)=C/c2ccccc2)cc1`, the concentration at half-maximal activity (AC50) under setting [1] was 1.64 µM [rising, partial curve].

With `CC(=O)Oc1ccc(C(=O)Nc2cccc(C(=O)Nc3ccccc3C(=O)O)c2)cc1`, the half-maximal activity concentration (AC50) under setting [1] was 7.94 µM [falling, partial curve].

`O=C(O)C1CCN(C(=O)OCc2ccccc2)CC1`: the AC50 under setting [1] was 9.2 µM [rising, partial curve, poor fit].

As to `COc1ccc(-c2nn(C)c3sc(C(=O)Nc4cccc(F)c4)cc23)cc1OC`, the AC50 under setting [1] was 1.12 µM [falling, full curve, poor fit].

With `C[C@H](CO)N1C[C@H](C)[C@@H](CN(C)S(=O)(=O)c2cccs2)Oc2ccc(NC(=O)C3CC3)cc2C1=O`, the AC50 under setting [1] was 11.6 µM [rising, partial curve, poor fit].

In the case of `COc1ccc(C2N(c3ccc(C)cc3)CCN2c2ccc(C)cc2)cc1O`, the concentration at half-maximal activity (AC50) under setting [1] is 1 µM [rising, full curve, poor fit].

`COc1cc(/C=C/c2cc(C(F)(F)F)[nH]c(=O)n2)cc(OC)c1OC`: the AC50 reads like this: under setting [1], 35.5 µM [falling, single point]; under setting [2], 22.4 µM [falling, single point].

Take `COc1cc(C2NC(=S)NC(C)=C2C(=O)Nc2ccc(C)cc2)ccc1O` (stereo not given): under setting [1], the AC50 was 0.355 µM [rising, partial curve, poor fit].

As to `CCCCCn1c(CN2CCN(c3cccc(Cl)c3)CC2)nc2c1c(=O)[nH]c(=O)n2C`, under setting [1], the concentration at half-maximal activity (AC50) was 35.5 µM [falling, single point].

For `CC1=NNC(=O)C1C(c1ccccc1)C(C#N)C#N` (stereo not given), under setting [1], the half-maximal activity concentration (AC50) was 18.4 µM [falling, partial curve, poor fit].

Take `CCN(CC(=O)Nc1ccc(NC(C)=O)cc1)CC(=O)Nc1ccc(Cl)c(Cl)c1`: under setting [1], the AC50 is 20 µM [rising, single point].

For the molecule `CCOC(=O)N/N=C1\CC(C)S(=O)(=O)c2ccc(Cl)cc21` (stereo not given), the AC50 under setting [1] was 10 µM [rising, partial curve, poor fit].

In the case of `CCOc1ccc(N2C(=O)CN(c3cccc4ccccc34)C2=S)cc1`, the AC50 under setting [1] was 1.12 µM [falling, full curve].

For the molecule `CC(C)CNC(=O)CSc1ccc(Cl)cc1`, the AC50 under setting [1] is 6.51 µM [rising, single point].

As to `COc1ccccc1C(=O)Nc1ccc(-c2nnn(CC(=O)N3CCOCC3)n2)cc1`, under setting [1], the AC50 is 2 µM [falling, full curve].

For `Nc1nonc1-n1nnc(C(=O)N/N=C/c2ccccc2Cl)c1CN1CCOCC1`, under setting [1], the concentration at half-maximal activity (AC50) was 17.8 µM [rising, single point].

As to `Cc1c(Cl)cnc(NC(=O)CSc2n[nH]c(N)n2)c1Cl`, the AC50 under setting [1] was 0.651 µM [rising, partial curve, poor fit].

On to `O=C(Cc1cccs1)Nc1nnc(-c2ccncc2)s1`, for which the AC50 under setting [1] was 8.2 µM [falling, partial curve].

Regarding `COc1ccc(NC(=O)/C(C#N)=C/c2ccc(-c3ccccc3C(=O)O)o2)cc1`, the AC50 under setting [1] was 8.91 µM [falling, partial curve].

In the case of `Cc1ccc(OCc2ccc(C(=O)NCc3cccnc3)cc2)cc1C`, under setting [1], the concentration at half-maximal activity (AC50) is 14.1 µM [falling, partial curve, poor fit].

Turning to `CCOc1ccc(CNC(=O)c2cc3oc4ccccc4c3n2C)cc1`, the AC50 under setting [1] was 2.59 µM [falling, partial curve].

With `CC(=O)Nc1ccc(NC(=O)c2ccc(NS(=O)(=O)c3cccc4cccnc34)cc2)cc1`, under setting [1], the AC50 is 3.55 µM [falling, single point].

On to `CC(=O)c1ccc(NC(=O)C(C)N(C)CC(=O)Nc2ccc(N3CCOCC3)cc2)cc1` (stereo not given), for which the AC50 under setting [1] was 7.08 µM [rising, partial curve, poor fit].

For `C=CCn1c(CNC(=O)c2cccs2)nnc1SCC(=O)Nc1ccc(C(=O)O)cc1`, under setting [1], the AC50 is 2.06 µM [falling, partial curve, poor fit].

As to `COc1cc(NC(=O)c2c(F)cccc2F)c(Cl)cc1Cl`, the AC50 under setting [1] is 11.2 µM [rising, partial curve, poor fit].

As for `O=C(N/N=C/c1ccccn1)c1ccc(Cl)cc1`, the AC50 is, setting by setting: under setting [1], 0.0891 µM [rising, full curve, poor fit]; under setting [2], 35.5 µM [falling, single point].

In the case of `ClCC1CSC(=NC23CC4CC(CC(C4)C2)C3)O1` (stereo not given), the AC50 under setting [1] was 5.01 µM [rising, full curve, poor fit].

For the molecule `CCN(CCNC(=O)CN1CCN(Cc2ccc(Cl)cc2)C1=O)c1ccccc1`, under setting [1], the concentration at half-maximal activity (AC50) was 2.59 µM [falling, partial curve, poor fit].

In general, AC50 refers to the midpoint of the concentration-response curve, whichever way the signal moves.
